The supplement of paper PMC10338343
± gives the standard deviation. The entries are a selection whose mix differs from that of the whole data set. Many entries were measured with a wide error.

Tests used:
[1] = system: MILI (PIWIL2) piRISC loaded with piRNA #1 (26 nt); assay: pre-steady-state target cleavage rate (min^-1); higher = faster piRNA-guided slicing of the target; conditions: guide: piRNA #1 5'p-UGAGGUAGUAGGUUGUAUAGUAUCCA; auxiliary factor: 500 nM mouse GTSF1;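 also: 1 nM active piRISC with 0.1 nM target library at 33 °C single turnover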
In short: (§1)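 A transcribed, DNA-blocked target RNA library […] was incubated at 33 °C for 0–8 or 0–960 min with 1 nM active affinity-purified piRISC carrying one synthetic guide, in HEPES–potassium acetate buffer with or without 500 nM GTSF1 partner protein. Uncleaved targets were then sequenced and normalised to depth and to weakly complementary targets. Data from three trials were pooled, with k3 capped at 0.0001 min^-1, and a burst-and-steady-state fit yielded the pre-steady-state cleavage rate.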

[2] = system: EfPiwi piRISC loaded with piRNA #1 (26 nt); assay: pre-steady-state target cleavage rate (min^-1); guide: piRNA #1 5'p-UGAGGUAGUAGGUUGUAUAGUAUCCA; MIWI and MILI are mouse PIWI proteins and EfPiwi is from a freshwater sponge; tags in brackets are library labels; higher = faster piRNA-guided slicing of the target; conditions: auxiliary factor: 500 nM Ephydatia muelleri Gtsf1
In short: as §1

Sequence | pre-steady-state target cleavage rate [1] | pre-steady-state target cleavage rate [2]
GGAGAGGAUACUAUUCAACCUAGUACCUCA | 0.00322 ± 0.0038 | 0.00256 ± 0.0017
GGAGACCUUACUAUAGAACCUACUACCACA | 0.0558 ± 0.012 | 0.00169 ± 0.0056
GGAGACGAUACUAUACAACCUAGUAGCUCA | 0.00097 ± 0.0088 | 0.00474 ± 0.0023
GGAGACCAUACUAUACAACCAACAACCUCA | 0.00287 ± 0.0039 | 0.000766 ± 0.0089
GGAGUGGAUACUUUAGAACCUACUACCUCA | 0.116 ± 0.0096 | 0.00079 ± 0.0032
GGAGUGGAUACUAUACAACCUACAUGCUCA | 0.00232 ± 0.0033 | 0.00184 ± 0.0028
GGAGACGAUACUAUACUAACCUACUACCUCA | 0.0018 ± 0.0042 | 0.00448 ± 0.0044
GGAGACGAUACUAUACAACCUACUACCUCA [g2:g24:cont:t1A] | 0.21 ± 0.018 | 0.0773 ± 0.024
GGAGACCAUACUAUACAACCUACUACUCUCA | 0.331 ± 0.028 | 0.00773 ± 0.0036
GGAGACCUAACUAAACAACCUACUACGUCA | 0.0404 ± 0.019 | 0.001 ± 0.0085
GGAGACCUAUCUAUACUACCUACUAGCUCA | 0.0698 ± 0.014 | 0.00208 ± 0.0058
GGAGACGAUACCAUACAACCUACUACCUCA | 0.236 ± 0.027 | 0.124 ± 0.045
GGAGACCUAUGAUUACAACCAUGAUGGAGA [g11:g17:cont:t1A] | 0.000175 ± 0.017 | 0.000544 ± 0.011
GGAGACCAUACUAUACAAGGAUGAUGGAGA [g13:g23:cont:t1A] | 0.00018 ± 0.034 | 0.000368 ± 0.014
GGAGACCUAUGAUAUGACCCUACUACCUCA | 0.000203 ± 0.014 | 0.000585 ± 0.011
GGAGACCAUACUAUACUACCUAGUACCUCA | 0.0453 ± 0.0095 | 0.00377 ± 0.0033
GGAGACGAAACUAUACAAGCUACUACCUCA | 0.242 ± 0.02 | 0.00338 ± 0.0017

Sequence | pre-steady-state target cleavage rate [1] | pre-steady-state target cleavage rate [2]
GGAGACCUAUGAUAUGUACCUACUACCGUCA | 0.000265 ± 0.03 | 0.000148 ± 0.018
GGAGACCUAUGAUAACAACCAUACUACCUCA | 0.000752 ± 0.0096 | 0.000244 ± 0.013
GGAGUGGAUAGUAUACAACGUACUACCUCA | 0.0168 ± 0.0038 | 0.00231 ± 0.0021
GGAGACCUAUGAUAUGUUCCUAGCUACCUCA | 0.000162 ± 0.015 | 0.000149 ± 0.016
GGAGACCUAACUAUACAACCUACUAGCACA | 0.00779 ± 0.0065 | 0.00348 ± 0.0042
GGAGACCUAUCUCAUACAACCUACUACCUCA | 0.0664 ± 0.01 | 0.00258 ± 0.0049
GGAGACCUUACUAUACAACCUACUUGGUCA | 0.000786 ± 0.0067 | 0.00296 ± 0.004
GGAGACCUAUGAUAUGAAGCCUACUACCUCA | 0.0001 ± 0.029 | 0.001 ± 0.0052
GGAGACCAUACUAUACAACCUAGAACCUCA | 0.00259 ± 0.0028 | 0.00223 ± 0.004
GGAGAGGAUACUAUACAACCUACUAGGACA | 0.000996 ± 0.0068 | 0.00237 ± 0.0039
GGAGUGGAAACUAUAGAACCUACUACCUCA | 0.204 ± 0.014 | 0.000481 ± 0.0046
GGAGACCUUACUAUACAACCUUCUUCCUCA | 0.00391 ± 0.0031 | 0.00255 ± 0.0053
GGAGACCUUACUAUACAACCUAGUAGCUCA | 0.000793 ± 0.0079 | 0.00206 ± 0.0027
GGAGACCUUACUAUACAUCCUACUAGCUCA | 0.2 ± 0.024 | 0.00233 ± 0.0027
GGAGACGAUACUAAACAAGCUACUACCUCA | 0.268 ± 0.016 | 0.00331 ± 0.0031
GGAGUGGAUACUAUACAACCUACUUGGAGA [g7:g26:cont:t1A] | 0.000226 ± 0.013 | 0.00179 ± 0.002

Nothing new here: an excerpt of the list.
Sequence | pre-steady-state target cleavage rate [1] | pre-steady-state target cleavage rate [2]
GGAGACCUAUGAUAUGUUCCUAGCUACCUCA | 0.000162 ± 0.015 | 0.000149 ± 0.016
GGAGACCUAACUAUACAACCUACUAGCACA | 0.00779 ± 0.0065 | 0.00348 ± 0.0042
